The text below walks through data of the supplement of paper PMC8104966.

“And” between values parts separate entries of the source, which are not always exact repeats. Equal entries are not always repeated. Some of the results follow. This data set is noisy: repeats of one test often differ as much as different tests do.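 Fusion between ACE2-bearing and full-length-spike-bearing U2OS cells was measured by imaging as the percentage of nuclei with both cell types' fluorescent markers. An inhibitory hit is a non-toxic compound whose fusion z-score is below -3, more than three standard deviations beneath the plate's DMSO wells.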

This assay relates to U2OS ACE2 x SARS-CoV-2 spike co-culture. In words: cell-cell fusion (fraction fused) z-score vs plate DMSO control; higher = more fusion. The note with it: 30 µM; 5 h; toxicity class: non-toxic, passed QC.
As for `COc1cc(C)c(C(=O)O)c(O)c1`, the “cell-cell fusion (z-score)” value was inactive: 1.03.
Regarding `Nc1ncnc2[nH]cnc12.Nc1ncnc2[nH]cnc12.O=S(=O)(O)O` [Adenine sulfate], the “cell-cell fusion (z-score)” value was inactive: 2.25.
In the case of `Nc1nc(Cl)nc2c1ncn2[C@@H]1O[C@H](CO)[C@@H](O)[C@@H]1F` [Clofarabine] it was active: -3.19; in that of `CC(=O)OCC1=C(C(=O)[O-])N2C(=O)[C@@H](NC(=O)CCC[C@@H](N)C(=O)[O-])[C@H]2SC1.[Zn+2]` [Cephalosporin C zinc salt], inactive: 2.53.
In the case of `Cl.O=c1cc(N2CCOCC2)oc2c(-c3ccccc3)cccc12` [LY-294,002 hydrochloride] it was inactive: 2.03.
The result for `O=C(Nc1nc(-c2cc(Cl)cs2)c(N2CCN(C3CCCCC3)CC2)s1)c1cnc(N2CCC(C(=O)O)CC2)c(Cl)c1` [Avatrombopag] reads inactive: 0.979; that for `CNCCC(Oc1ccccc1OC)c1ccccc1.Cl` (stereo unspecified) [Nisoxetine hydrochloride], inactive: 2.4.
`CN1CCN(c2cccc(Nc3nc4c(-c5ccc(S(C)(=O)=O)cc5)cccn4n3)c2)CC1`: the “cell-cell fusion (z-score)” value was inactive: -1.29 and inactive: -0.227.
The result for `COc1cc2c(cc1OC)C1CC(=O)C(CC(C)C)CN1CC2` (stereo unspecified) [Tetrabenazine] reads inactive: 1.48; that for `C[C@@H]1C[C@H]2[C@@H]3C[C@H](F)C4=CC(=O)C=C[C@]4(C)[C@@]3(F)[C@@H](O)C[C@]2(C)[C@@]1(O)C(=O)CO` [Flumethasone], inactive: 3.04; that for `NCCS` [2-Aminoethanethiol], inactive: 3.59.
In the case of `CN(C)CCOC(c1ccccc1)c1ccccc1.Cl` [Diphenhydramine hydrochloride] it was inactive: 2.09.
The result for `CC(Oc1c(Cl)cccc1Cl)C1=NCCN1.Cl` (stereo unspecified) reads inactive: 2.38; that for `Cl.NCCc1ccc(O)c(O)c1` [Dopamine hydrochloride], inactive: 0.174; that for `Nc1nccs1`, inactive: 2.22.
With `C[C@]12CC[C@H](O)CC1=CC[C@@H]1[C@@H]2CC[C@]2(C)C(=O)CC[C@@H]12` [Dehydroepiandrosterone], the “cell-cell fusion (z-score)” value is inactive: 3.13.
The result for `CNCCC=C1c2ccccc2CCc2ccccc21.Cl` reads inactive: 0.13; that for `CNCCC=C1c2ccccc2CCc2ccccc21.Cl` [Nortriptyline hydrochloride], inactive: 1.45; that for `CC(=O)O[C@H]1C[C@@]2(C)[C@@H](C[C@@H](O)C3[C@]2(C)CC[C@H]2[C@H](C)[C@H](O)CC[C@]32C)/C1=C(/CCC=C(C)C)C(=O)O` (stereo partly specified), inactive: 0.916.
The result for `CC(C)Cn1cnc2c(N)nc3ccccc3c21` [Imiquimod] reads inactive: 1.63.
In the case of `COC(=O)N1CCN(C(=O)Cc2ccc(Cl)c(Cl)c2)C(CN2CCCC2)C1.O=C(O)/C=C/C(=O)O` (stereo unspecified) it was inactive: 1.71; in that of `CC(=O)OCC1=C(C(=O)[O-])N2C(=O)[C@@H](NC(=O)Cc3cccs3)[C@H]2SC1.[Na+]`, inactive: 1.13; in that of `CC(=O)OCC1=C(C(=O)[O-])N2C(=O)[C@@H](NC(=O)Cc3cccs3)[C@H]2SC1.[Na+]` [Cephalothin sodium], inactive: 2.59.
Regarding `NC(=O)c1ccc(-c2nc(-c3ccc4c(c3)OCO4)c(-c3ccccn3)[nH]2)cc1`, the “cell-cell fusion (z-score)” value is inactive: 1.49.
Consider `CC(C)(C)c1ccc(C(O)CCCN2CCC(C(O)(c3ccccc3)c3ccccc3)CC2)cc1` (stereo unspecified), for which the “cell-cell fusion (z-score)” value was inactive: 2.31.
In the case of `CC(C)(C)c1ccc(C(O)CCCN2CCC(C(O)(c3ccccc3)c3ccccc3)CC2)cc1` (stereo unspecified) [Terfenadine], the “cell-cell fusion (z-score)” value was inactive: 0.399.
`Cc1ccc(C)c(OCCCC(C)(C)C(=O)O)c1`: the “cell-cell fusion (z-score)” value was inactive: 0.31.
The result for `CCc1c(C)[nH]c2c1C(=O)C(CN1CCOCC1)CC2.Cl` (stereo unspecified) [Molindone hydrochloride] reads inactive: 1.5.
Consider `O.O=P1(N(CCCl)CCCl)NCCCO1` (stereo unspecified) [Cyclophosphamide monohydrate], for which the “cell-cell fusion (z-score)” value was inactive: 1.57.
In the case of `O.O=P1(N(CCCl)CCCl)NCCCO1` (stereo unspecified) it was inactive: 1.13; in that of `O=C1CCc2ccc(OCCCCN3CCN(c4cccc(Cl)c4Cl)CC3)cc2N1`, inactive: 0.625.
Regarding `CC(=O)O[C@@H]1CC[C@@]2(C)C(C[C@@H](OC(C)=O)[C@@]3(C)C4=CC(=O)O[C@@H](c5ccoc5)[C@]4(C)CCC23)C1(C)C` (stereo partly drawn) [3alpha-ACETOXYDIHYDRODEOXYGEDUNIN], the “cell-cell fusion (z-score)” value was inactive: 2.52.
`Cl.NC(=O)c1ccc(OCC(O)CN2CC=C(c3ccc(F)cc3)CC2)cc1` (stereo unspecified): the “cell-cell fusion (z-score)” value is inactive: 2.29.
In the case of `CC(=O)OCC1=C(C(=O)[O-])N2C(=O)[C@@H](NC(=O)CSc3ccncc3)[C@H]2SC1.[Na+]` [Cephapirin Sodium] it was inactive: 1.75.
`C=C(C)C1CC=C(CO)CC1` (stereo unspecified): the “cell-cell fusion (z-score)” value was inactive: 2.13.
Turning to `CC(C)[C@@H]1CC[C@@H](C)CC1=O`, the “cell-cell fusion (z-score)” value was inactive: 1.83.
In the case of `Br.CN(C)CCCC1(c2ccc(F)cc2)OCc2cc(C#N)ccc21` (stereo unspecified) [Citalopram HBr] it was inactive: 2.61; in that of `CS(=O)(=O)O.O.O=C(O)c1cn(C2CC2)c2cc(N3C[C@@H]4C[C@H]3CN4)c(F)cc2c1=O`, inactive: 1.81.
In the case of `Cc1nnc(NS(=O)(=O)c2ccc(N)cc2)s1`, the “cell-cell fusion (z-score)” value was inactive: 1.11.
In the case of `C[C@@](Cc1ccc(O)c(O)c1)(NN)C(=O)O.O` [Carbidopa Hydrate] it was inactive: 1.12; in that of `CC[C@]1(O)CC2CN(CCc3c([nH]c4ccccc34)[C@@](C(=O)OC)(c3cc4c(cc3OC)N(C)[C@H]3[C@@](O)(C(=O)OC)[C@H](OC(C)=O)[C@]5(CC)C=CCN6CC[C@]43[C@@H]65)C2)C1.O=S(=O)(O)O` (stereo partly specified), inactive: 1.04; in that of `COc1ccc(S(=O)(=O)Nc2cccnc2Nc2ccc(O)cc2)cc1` [ABT-751(Colchicine)], inactive: -1.23.
For `O=C1[N-]C(=O)C(c2ccccc2)(c2ccccc2)N1.[Na+]` [Phenytoin sodium], the “cell-cell fusion (z-score)” value was inactive: 3.81.
As for `COc1ccc(C(=O)c2ccccc2)c(O)c1O`, the “cell-cell fusion (z-score)” value is inactive: 2.14.
For the compound `CC1[C@H](C)OC(=O)CC(O)CC(O)CC(O)CCC(O)C(O)C[C@]2(O)CC(O)C(C(=O)O)C(CC(OC3O[C@H](C)[C@@H](O)[C@H](N)[C@@H]3O)/C=C/C=C/C=C/C=C/CC/C=C/C=C/[C@H](C)[C@H]1O)O2` (stereo partly specified), the “cell-cell fusion (z-score)” value was inactive: 2.66.
In the case of `C[C@]12CC[C@@H]3c4ccc(O)cc4CC[C@H]3[C@@H]1CCC2=O` [Aquacrine] it was inactive: 1.33.
Turning to `CCN(CC)CCCC(C)Nc1c2ccc(Cl)cc2nc2ccc(OC)cc12.Cl.Cl` (stereo unspecified) [Quinacrine dihydrochloride], the “cell-cell fusion (z-score)” value is inactive: 0.792.
For the compound `Nc1ccn(C[C@@H](CO)OCP(=O)(O)O)c(=O)n1` [Cidofovir], the “cell-cell fusion (z-score)” value is inactive: -0.258.
Regarding `C[C@]12CC[C@@H]3c4ccc(O)cc4CC[C@H]3[C@@H]1CC[C@@H]2O` [Estradiol], the “cell-cell fusion (z-score)” value is inactive: 0.966.
The result for `CCn1cc(C(=O)[O-])c(=O)c2ccc(C)nc21.[Na+]` [Nalidixic acid sodium salt] reads inactive: 2.93.
`CCCC(CCC)C(=O)[O-].[Na+]` [Valproic acid sodium salt]: the “cell-cell fusion (z-score)” value is inactive: 2.09.
For the compound `CCCC(CCC)C(=O)[O-].[Na+]`, the “cell-cell fusion (z-score)” value is inactive: 1.11.
`CCCC(CCC)C(=O)[O-].[Na+]` [Valproic acid sodium]: the “cell-cell fusion (z-score)” value was inactive: 2.56.
The result for `Br.CN1CCC[C@@H]1Cc1c[nH]c2ccc(CCS(=O)(=O)c3ccccc3)cc12` [Eletriptan] reads inactive: 3.22.
Take `O=C(O)/C=C/C=C/c1ccc2c(c1)OCO2`: the “cell-cell fusion (z-score)” value was inactive: 1.97.
`COCc1nc2c(=O)n(C)c(=O)n(CC(C)C)c2[nH]1` [8-Methoxymethyl-3-isobutyl-1-methylxanthine]: the “cell-cell fusion (z-score)” value is inactive: 2.09.
The result for `COc1cc(OC)c2ccc(=O)oc2c1` reads inactive: 1.99; that for `Cc1ccccc1N1C(=O)c2cc(S(=O)ON)c(Cl)cc2NC1C` (stereo unspecified) [Metolazone], inactive: 2.39.
In the case of `Br.CN1C2CC[C@H]1C[C@@H](OC(=O)C(O)c1ccccc1)C2` (stereo partly specified) it was inactive: 1.22.
As to `OC(Cn1cncn1)(Cn1cncn1)c1ccc(F)cc1F` [Fluconazole], the “cell-cell fusion (z-score)” value is inactive: 2.57.
Consider `O=C1C(O)=C([C@H]2CC[C@H](c3ccc(Cl)cc3)CC2)C(=O)c2ccccc21`, for which the “cell-cell fusion (z-score)” value was inactive: 0.767.
The result for `CN(C)CC/C=C1/c2ccccc2Sc2ccc(Cl)cc21` [Chlorprothixene] reads inactive: 1.93; that for `C[C@@H](N)[C@H]1CC[C@H](C(=O)Nc2ccncc2)CC1.Cl.Cl`, inactive: 1.61; that for `NC/C=C\C(=O)O` [cis-4-Aminocrotonic acid], inactive: 2.6.
For the compound `COc1cc(C)c2c(c1C=O)Oc1c(c(C)c(O)c3c1C(O)OC3=O)OC2=O` (stereo unspecified), the “cell-cell fusion (z-score)” value was inactive: 2.02.
Regarding `CC(=O)O[C@H]1C(=O)[C@@]2(C)C([C@H](OC(=O)c3ccccc3)[C@]3(O)C[C@H](O)C(C)=C1C3(C)C)[C@]1(OC(C)=O)CO[C@@H]1C[C@@H]2O` (stereo partly specified), the “cell-cell fusion (z-score)” value is inactive: 2.35.
The result for `C=C1C[C@H]2[C@@H]3CCC4=CC(=O)CC[C@@H]4[C@H]3CC[C@]2(C)[C@@]1(OC(C)=O)C(C)=O` [Nestoron] reads inactive: 2.7; that for `Cl.Clc1ccc2nsnc2c1NC1=NCCN1` [Tizanidine hydrochloride], inactive: 2.75.
The result for `CCNC(=O)[C@H]1O[C@@H](n2cnc3c(N)ncnc32)C(O)[C@H]1O` (stereo partly specified) [5'-N-Ethylcarboxamidoadenosine] reads inactive: 2.03; that for `Cc1cccc(C)c1OCC(C)N.Cl` (stereo unspecified), inactive: 1.93.
In the case of `Cc1cccc(C)c1OCC(C)N.Cl` (stereo unspecified) [Mexiletene hydrochloride] it was inactive: 2.46.
